The values below come from the supplement of paper PMC10849652.

Amino acid sequences for entries named in this document (tags omitted). A change or cut given only in a name is not applied to a line headed by its entry.
UniProt Q92598: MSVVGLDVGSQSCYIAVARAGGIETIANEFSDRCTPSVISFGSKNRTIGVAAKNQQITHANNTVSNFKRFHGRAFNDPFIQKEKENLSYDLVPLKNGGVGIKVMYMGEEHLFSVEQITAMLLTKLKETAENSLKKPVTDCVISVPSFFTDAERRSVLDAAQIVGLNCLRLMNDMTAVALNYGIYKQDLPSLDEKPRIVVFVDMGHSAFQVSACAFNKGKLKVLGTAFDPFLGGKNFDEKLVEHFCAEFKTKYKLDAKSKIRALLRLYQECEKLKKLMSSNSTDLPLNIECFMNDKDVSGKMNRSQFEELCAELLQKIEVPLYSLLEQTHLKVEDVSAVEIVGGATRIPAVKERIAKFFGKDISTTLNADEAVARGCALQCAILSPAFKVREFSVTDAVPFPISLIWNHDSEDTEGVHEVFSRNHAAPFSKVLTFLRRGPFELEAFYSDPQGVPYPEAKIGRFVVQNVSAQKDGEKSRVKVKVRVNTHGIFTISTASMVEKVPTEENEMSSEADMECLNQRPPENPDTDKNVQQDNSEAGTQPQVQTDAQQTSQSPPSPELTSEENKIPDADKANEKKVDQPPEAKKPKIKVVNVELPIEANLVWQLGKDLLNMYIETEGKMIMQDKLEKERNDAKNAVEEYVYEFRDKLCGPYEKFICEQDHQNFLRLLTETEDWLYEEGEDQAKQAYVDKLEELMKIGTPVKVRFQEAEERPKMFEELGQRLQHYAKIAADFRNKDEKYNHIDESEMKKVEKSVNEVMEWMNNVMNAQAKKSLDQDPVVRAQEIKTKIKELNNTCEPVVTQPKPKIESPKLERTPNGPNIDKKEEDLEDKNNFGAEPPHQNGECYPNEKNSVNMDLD
UniProt P08238, whole entry, looked up: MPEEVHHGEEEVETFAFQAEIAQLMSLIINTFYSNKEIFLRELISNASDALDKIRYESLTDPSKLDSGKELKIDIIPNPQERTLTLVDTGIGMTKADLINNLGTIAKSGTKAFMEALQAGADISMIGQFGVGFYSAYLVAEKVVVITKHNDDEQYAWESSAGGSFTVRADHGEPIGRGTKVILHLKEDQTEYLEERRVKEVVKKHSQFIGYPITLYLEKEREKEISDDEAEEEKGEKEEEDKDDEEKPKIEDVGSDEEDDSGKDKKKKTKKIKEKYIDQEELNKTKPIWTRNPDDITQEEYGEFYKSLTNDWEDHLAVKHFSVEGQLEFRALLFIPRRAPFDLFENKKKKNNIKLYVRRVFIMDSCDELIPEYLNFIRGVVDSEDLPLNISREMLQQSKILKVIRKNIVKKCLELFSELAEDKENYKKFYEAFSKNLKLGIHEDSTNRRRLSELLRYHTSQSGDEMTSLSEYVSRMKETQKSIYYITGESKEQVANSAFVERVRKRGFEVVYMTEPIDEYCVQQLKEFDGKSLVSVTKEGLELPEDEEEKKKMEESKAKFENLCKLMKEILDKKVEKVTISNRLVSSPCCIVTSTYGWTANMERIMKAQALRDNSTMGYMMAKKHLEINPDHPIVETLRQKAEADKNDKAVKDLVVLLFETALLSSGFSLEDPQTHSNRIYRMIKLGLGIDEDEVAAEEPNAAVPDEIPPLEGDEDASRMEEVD
UniProt Q9Y547: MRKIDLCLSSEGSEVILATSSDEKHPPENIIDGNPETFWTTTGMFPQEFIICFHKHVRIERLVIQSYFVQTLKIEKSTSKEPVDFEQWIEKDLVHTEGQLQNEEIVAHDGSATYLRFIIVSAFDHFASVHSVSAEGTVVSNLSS
UniProt P35914: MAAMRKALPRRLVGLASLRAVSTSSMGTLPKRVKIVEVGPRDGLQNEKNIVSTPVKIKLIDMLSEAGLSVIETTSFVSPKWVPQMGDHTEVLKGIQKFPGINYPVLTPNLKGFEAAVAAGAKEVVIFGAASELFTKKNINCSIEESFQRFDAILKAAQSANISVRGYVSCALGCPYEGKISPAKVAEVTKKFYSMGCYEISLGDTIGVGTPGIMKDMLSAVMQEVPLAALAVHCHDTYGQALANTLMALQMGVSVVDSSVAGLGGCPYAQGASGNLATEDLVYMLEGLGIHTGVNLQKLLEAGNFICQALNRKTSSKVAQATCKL
UniProt P05114: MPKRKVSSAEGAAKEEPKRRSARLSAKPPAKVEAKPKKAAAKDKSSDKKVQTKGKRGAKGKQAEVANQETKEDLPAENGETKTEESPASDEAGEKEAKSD
UniProt P14625, whole entry, looked up: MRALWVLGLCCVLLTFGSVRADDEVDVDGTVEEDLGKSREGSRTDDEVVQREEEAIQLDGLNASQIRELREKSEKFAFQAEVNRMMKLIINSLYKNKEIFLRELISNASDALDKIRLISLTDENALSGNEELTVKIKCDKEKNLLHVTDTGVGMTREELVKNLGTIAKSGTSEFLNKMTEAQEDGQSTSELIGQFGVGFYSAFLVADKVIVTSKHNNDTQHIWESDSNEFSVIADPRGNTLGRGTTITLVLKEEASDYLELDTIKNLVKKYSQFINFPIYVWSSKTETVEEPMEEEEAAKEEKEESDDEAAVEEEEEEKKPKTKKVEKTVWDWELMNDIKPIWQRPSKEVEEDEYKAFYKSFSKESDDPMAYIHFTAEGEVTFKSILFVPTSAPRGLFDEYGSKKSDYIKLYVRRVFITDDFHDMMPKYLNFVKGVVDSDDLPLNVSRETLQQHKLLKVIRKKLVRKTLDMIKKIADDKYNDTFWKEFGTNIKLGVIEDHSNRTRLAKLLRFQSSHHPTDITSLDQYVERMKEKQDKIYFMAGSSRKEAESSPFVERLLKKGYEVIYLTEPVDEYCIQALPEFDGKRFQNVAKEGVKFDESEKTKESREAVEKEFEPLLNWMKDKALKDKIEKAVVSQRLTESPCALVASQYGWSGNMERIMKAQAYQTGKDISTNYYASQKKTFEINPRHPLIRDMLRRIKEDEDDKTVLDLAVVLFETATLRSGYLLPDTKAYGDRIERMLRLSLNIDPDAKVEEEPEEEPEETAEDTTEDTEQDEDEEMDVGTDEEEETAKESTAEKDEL
UniProt Q5SSJ5: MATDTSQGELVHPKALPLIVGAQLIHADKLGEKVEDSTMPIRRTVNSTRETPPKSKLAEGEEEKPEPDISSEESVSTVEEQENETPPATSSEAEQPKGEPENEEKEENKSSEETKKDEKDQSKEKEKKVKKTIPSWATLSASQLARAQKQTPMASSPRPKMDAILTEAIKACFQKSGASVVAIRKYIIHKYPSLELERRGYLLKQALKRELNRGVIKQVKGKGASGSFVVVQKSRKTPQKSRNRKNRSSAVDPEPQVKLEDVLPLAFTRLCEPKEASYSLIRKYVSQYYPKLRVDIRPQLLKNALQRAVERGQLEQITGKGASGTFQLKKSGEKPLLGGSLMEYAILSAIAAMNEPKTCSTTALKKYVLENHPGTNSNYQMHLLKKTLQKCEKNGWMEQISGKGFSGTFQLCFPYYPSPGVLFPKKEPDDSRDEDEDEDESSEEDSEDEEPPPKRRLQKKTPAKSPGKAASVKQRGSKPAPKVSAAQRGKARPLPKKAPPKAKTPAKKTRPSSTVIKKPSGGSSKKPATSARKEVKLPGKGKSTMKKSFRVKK
UniProt Q9P2D0: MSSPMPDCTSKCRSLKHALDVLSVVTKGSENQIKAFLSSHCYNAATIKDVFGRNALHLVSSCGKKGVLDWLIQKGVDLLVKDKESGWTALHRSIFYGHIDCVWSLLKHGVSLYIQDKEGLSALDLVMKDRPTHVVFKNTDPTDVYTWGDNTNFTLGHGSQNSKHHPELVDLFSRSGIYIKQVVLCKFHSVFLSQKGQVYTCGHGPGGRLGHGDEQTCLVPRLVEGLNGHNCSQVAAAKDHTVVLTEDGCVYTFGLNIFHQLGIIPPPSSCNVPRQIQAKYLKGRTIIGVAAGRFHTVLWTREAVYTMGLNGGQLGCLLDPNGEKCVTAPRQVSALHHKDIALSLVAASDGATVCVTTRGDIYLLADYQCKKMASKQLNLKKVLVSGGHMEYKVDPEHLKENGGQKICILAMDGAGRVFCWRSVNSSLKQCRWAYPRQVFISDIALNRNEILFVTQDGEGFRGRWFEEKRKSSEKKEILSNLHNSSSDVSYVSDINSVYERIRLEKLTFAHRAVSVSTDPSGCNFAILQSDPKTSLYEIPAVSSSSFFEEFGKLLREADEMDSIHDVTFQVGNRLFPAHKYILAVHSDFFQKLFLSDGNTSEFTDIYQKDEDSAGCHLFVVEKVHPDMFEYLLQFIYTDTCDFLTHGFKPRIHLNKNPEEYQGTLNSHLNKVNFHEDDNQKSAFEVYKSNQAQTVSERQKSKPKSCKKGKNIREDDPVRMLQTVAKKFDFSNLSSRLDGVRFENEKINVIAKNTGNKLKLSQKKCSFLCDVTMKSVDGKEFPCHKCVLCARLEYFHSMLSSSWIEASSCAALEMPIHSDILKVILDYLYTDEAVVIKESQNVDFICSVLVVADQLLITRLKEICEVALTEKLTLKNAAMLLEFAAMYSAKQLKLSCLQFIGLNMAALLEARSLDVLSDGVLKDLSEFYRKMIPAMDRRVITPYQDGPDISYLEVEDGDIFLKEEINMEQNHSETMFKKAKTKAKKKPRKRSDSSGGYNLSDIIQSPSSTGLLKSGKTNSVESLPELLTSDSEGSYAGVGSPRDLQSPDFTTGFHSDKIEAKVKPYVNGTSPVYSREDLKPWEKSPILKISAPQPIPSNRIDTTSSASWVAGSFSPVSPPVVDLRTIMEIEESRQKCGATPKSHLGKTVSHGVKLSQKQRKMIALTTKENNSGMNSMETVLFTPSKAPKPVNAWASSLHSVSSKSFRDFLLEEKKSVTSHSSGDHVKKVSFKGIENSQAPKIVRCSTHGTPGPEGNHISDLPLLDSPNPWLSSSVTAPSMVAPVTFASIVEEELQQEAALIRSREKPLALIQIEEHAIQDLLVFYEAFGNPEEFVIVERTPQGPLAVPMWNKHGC
UniProt P52272: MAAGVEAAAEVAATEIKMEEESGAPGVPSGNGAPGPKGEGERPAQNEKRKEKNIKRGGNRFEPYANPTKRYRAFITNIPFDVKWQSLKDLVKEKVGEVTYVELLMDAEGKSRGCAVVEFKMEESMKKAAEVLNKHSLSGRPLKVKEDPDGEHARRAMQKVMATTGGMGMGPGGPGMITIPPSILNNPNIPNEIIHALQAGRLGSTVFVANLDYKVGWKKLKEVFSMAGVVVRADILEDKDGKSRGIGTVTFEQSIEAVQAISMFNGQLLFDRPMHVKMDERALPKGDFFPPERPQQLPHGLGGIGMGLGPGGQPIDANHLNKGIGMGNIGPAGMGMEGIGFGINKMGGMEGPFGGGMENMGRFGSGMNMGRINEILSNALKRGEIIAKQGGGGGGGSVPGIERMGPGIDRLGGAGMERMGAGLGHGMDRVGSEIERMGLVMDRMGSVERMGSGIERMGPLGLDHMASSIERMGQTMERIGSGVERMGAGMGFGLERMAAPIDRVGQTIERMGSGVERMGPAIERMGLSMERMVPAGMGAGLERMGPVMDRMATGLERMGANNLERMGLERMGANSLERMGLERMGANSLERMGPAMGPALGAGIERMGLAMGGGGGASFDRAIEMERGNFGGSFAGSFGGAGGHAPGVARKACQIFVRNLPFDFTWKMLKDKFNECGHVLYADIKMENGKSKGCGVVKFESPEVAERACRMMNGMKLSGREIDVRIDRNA
UniProt Q9BUJ2: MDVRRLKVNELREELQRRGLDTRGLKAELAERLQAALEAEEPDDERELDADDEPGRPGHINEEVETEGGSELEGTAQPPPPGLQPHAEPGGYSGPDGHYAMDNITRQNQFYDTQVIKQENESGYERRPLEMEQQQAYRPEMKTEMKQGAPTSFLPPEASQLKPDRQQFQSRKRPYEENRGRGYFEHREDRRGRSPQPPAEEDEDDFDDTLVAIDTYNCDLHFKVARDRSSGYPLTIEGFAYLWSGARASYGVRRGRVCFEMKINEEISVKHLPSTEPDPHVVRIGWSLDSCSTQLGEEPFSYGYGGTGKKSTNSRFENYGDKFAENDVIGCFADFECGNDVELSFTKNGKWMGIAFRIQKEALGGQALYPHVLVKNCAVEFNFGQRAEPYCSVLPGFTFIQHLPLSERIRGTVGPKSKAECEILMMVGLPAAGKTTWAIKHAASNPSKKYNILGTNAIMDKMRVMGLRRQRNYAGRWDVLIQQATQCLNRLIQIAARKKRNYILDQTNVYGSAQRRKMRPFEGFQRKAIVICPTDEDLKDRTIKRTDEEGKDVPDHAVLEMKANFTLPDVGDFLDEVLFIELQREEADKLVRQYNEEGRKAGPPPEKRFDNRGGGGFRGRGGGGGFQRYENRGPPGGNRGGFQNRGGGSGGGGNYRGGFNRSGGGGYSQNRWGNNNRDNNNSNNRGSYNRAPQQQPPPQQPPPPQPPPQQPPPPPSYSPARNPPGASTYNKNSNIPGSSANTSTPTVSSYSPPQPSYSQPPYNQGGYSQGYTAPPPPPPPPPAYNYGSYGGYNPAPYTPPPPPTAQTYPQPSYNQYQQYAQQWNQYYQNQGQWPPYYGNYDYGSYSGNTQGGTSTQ

The other results are listed elsewhere or left out.

Compound in the assay: Cn1cncc1[C@@](N)(c1ccc(Cl)cc1)c1ccc2c(c1)c(-c1cccc(Cl)c1)cc(=O)n2C [tipifarnib]
In words: log2 fold change, soluble protein after heating vs DMSO (PISA); higher = thermal stabilisation; K562 cells, 10 uM, 30 min; active = over 0.2 and 3.5 SD of the protein, either way, in both replicates (recomputed). The procedure, abridged: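 Values are thermal stability changes relative to control samples and are taken from duplicates. They are stated as log2 fold changes. Before quantification by TMTpro 16plex LC-MS/MS with equalised channel sums, K562 cells at 2×10^6 cells/mL were treated with 10 μM compound for 30 min, heated in aliquots for 3 min across 48°C-58°C, pooled, extracted in PBS with 0.5% NP-40 at 4°C, and centrifuged at 21,000xg for 90 min to give the soluble supernatant.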
For HSPH1 (UniProt Q92598), the log2 fold change is inactive: -0.039.
The same measure for HSPA8 (UniProt E9PK54): inactive: 0.227.
Under HNRNPK isoform 2 (UniProt P61978) stands inactive: 0.007; under HMGN5 (UniProt P82970), inactive: 0.
Under HIST2H2BF isoform 2 (UniProt Q5QNW6) stands inactive: -0.018; under HSP90AB1 (UniProt P08238), inactive: -0.084; under HTRA2 (UniProt O43464), inactive: -0.002.
Regarding HSPB11 (UniProt Q9Y547), the log2 fold change is inactive: -0.051.
As to HNRNPH3 (UniProt P31942), the log2 fold change is inactive: -0.01.
The same measure for HMGB1 (UniProt P09429): inactive: -0.019; for HMGCL (UniProt P35914): inactive: 0.046; for HMGB3 (UniProt O15347): inactive: -0.024.
Under HMGN1 (UniProt P05114) stands inactive: 0.066.
The same measure for HTATSF1 (UniProt O43719): inactive: 0.101; for HSP90B1 (UniProt P14625): inactive: 0.031; for HP1BP3 (UniProt Q5SSJ5): inactive: 0.028.
For IBTK (UniProt Q9P2D0), the log2 fold change is inactive: -0.025.
The same measure for HOOK3 (UniProt Q86VS8): inactive: -0.001.
Under HNRNPM (UniProt P52272) stands inactive: 0.064; under HIRIP3 (UniProt Q9BW71), inactive: -0.024.
The same measure for HUS1 (UniProt O60921): inactive: -0.022.
For IDE (UniProt P14735), the log2 fold change is inactive: -0.064.
The same measure for HNRNPUL1 (UniProt Q9BUJ2): inactive: 0.059.
